These are yes or no findings as the source states them, for the method shown. Some results given as binding are weak or reduced against the parent protein; the word gives no strength.
Biological target: recombinant human transferrin receptor 1 (human) (UniProt P02786)
Assay: ELISA before and after 9 days at 40 C

binding: binds
B1: humanized anti-TfR Fab 5H12 (VH5-C33Y/Vk4) (Fab, V domains shown)
VH: QVQLVQSGAEVKKPGASVKVSCKASGYSFTDYYINWVRQAPGQGLEWMGWIYPGSGNTRYSERFKGRVTITRDTSASTAYMELSSLRSEDTAVYYCAREDYYPYHGMDYWGQGTLVTVSS
VL: DIVMTQSPDSLAVSLGERATINCRASESVDGYDNSFMHWYQQKPGQPPKLLIFRASNLESGVPDRFSGSGSGTDFTLTISSLQAEDVAVYYCQQSSEDPWTFGQGTKLEIKR
